Laboratory results reported in PubChem BioAssay AID1671190 (National Center for Advancing Translational Sciences (NCATS), 2021).
About 6,100 (1.1%) of roughly 580,000 compounds were called active. Inconclusive results, whose numbers are uncertain, are shown with a selection of clear calls. The call rests on the fitted dose curve; in most records, active means well fitted inhibition curve with a large enough effect; inconclusive means small, poorly fitted or top-dose-only effect, or another doubt; inactive means no such curve, though single readings can be large or run the other way. A potency beside an inconclusive call is a rough fit, not a confirmed value.
On the % scale 0 is the no-effect control and ±100 the full control effect; potency means the concentration at half of the fitted maximal effect.

Sequences of proteins named here, by UniProt entry; tags and fusion partners are left off. A change or cut given only in a name is not applied to a line headed by its entry.
UniProt P18054: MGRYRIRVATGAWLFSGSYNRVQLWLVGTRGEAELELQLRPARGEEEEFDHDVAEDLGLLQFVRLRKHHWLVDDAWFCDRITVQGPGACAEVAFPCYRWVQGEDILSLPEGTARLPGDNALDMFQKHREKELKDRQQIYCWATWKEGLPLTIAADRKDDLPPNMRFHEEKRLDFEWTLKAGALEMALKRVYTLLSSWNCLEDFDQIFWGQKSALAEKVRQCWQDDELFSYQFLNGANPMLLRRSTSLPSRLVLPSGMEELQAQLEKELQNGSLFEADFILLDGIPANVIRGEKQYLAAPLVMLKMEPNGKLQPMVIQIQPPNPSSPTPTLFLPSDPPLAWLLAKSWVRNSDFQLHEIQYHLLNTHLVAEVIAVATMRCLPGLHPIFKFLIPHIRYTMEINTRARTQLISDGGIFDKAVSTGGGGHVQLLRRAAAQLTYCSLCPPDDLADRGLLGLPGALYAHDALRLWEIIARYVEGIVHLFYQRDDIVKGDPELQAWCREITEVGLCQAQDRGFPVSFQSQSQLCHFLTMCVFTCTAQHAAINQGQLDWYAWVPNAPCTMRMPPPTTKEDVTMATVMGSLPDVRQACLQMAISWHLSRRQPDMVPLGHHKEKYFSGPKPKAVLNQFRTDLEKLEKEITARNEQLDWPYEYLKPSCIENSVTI

What follows are compounds tested against Polyunsaturated fatty acid lipoxygenase ALOX12 (Homo sapiens) (UniProt P18054) (assay: Primary qHTS assay for inhibitors of human arachidonate 12S-lipoxygenase (ALOX12): Round 2). Details: purified 12hLO, xylenol orange hydroperoxide absorbance; activity change, negative = inhibition: at 108 µM (top of the series) unless noted.
In short: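 Hydroperoxide product was detected by ferrous iron/xylenol orange as the 573 to 405 nm absorbance ratio. Arachidonic acid at 40 uM (final) was turned over for 30 min at room temperature by 150 nM human 12hLO, pH 7.0 Hepes buffer, after 15 min compound preincubation.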
With `O=C(Oc1c(Cl)cc(Cl)c2cccnc12)c1ccco1` the Potency was active: 7.08 µM. With `O=C(CCC(=O)N1CCN(c2ccccn2)CC1)c1ccc(Cl)s1` the Potency was inconclusive: 50.1 µM [inhibitor, partial curve, poor fit]. With `Cc1cc(=O)n2c(C(=O)NCc3ccccc3)c(C(=O)Nc3cccc(C)c3C)sc2n1` the Potency was “inactive”. With `Cc1ccccc1CNC(=O)c1cccc(CS(C)=O)c1` (stereo unspecified) the Potency was “inactive”. With `CN(C)c1cccc(C(=O)NC(c2ccccc2)c2ccccc2)c1` the Potency was inconclusive: 126 µM [inhibitor, single point]. With `CCOc1ccc(NC(=O)C(C)C)c2cccnc12` the Potency was “inactive”. `Cc1ccc(C)c(N=Cc2ccccc2[N+](=O)[O-])c1` was tested, and the Potency was “inactive”. For `Cc1cc(C(F)(F)F)c(C#N)c(SCC(=O)Nc2nc3cc(Br)ccc3s2)n1`, the Potency was inconclusive: 44.7 µM [inhibitor, partial curve, poor fit]. For `Cn1nccc1C(=O)N1CC(N(C2CCOCC2)S(C)(=O)=O)C1`, the Potency was “inactive”. In the case of `O=[N+]([O-])c1cccnc1N1CCN(c2ccccc2F)CC1`, the Potency is reported as “inactive”. In the case of `c1cc(OCCN2CCCCC2)cc(-c2n[nH]c3ccc(-c4ncn[nH]4)cc23)c1`, the Potency is reported as inconclusive: 6.11 µM [inhibitor, partial curve, poor fit]. For `COc1ccccc1CCNC(=O)CNC(=O)Cc1cccc2ccccc12`, the Potency was inconclusive: 141 µM [inhibitor, partial curve, poor fit]. For `C/C=C/C=C/C(=O)OCc1nc2c(c(=O)[nH]c(=O)n2CCCC)n1CC`, the Potency was inconclusive: 56.2 µM [inhibitor, full curve, poor fit]. In the case of `COc1cccc(C2C(C(=O)/C=C/c3ccco3)=C(O)C(=O)N2CCN2CCOCC2)c1` (stereo unspecified), the Potency is reported as inconclusive: 15.8 µM [inhibitor, partial curve, poor fit]. `CC1CCc2onc(C(=O)Nc3cccc(Cl)c3)c2C1` (stereo unspecified) was tested, and the Potency was “inactive”. `Cc1ccc(NC(=O)C2=Cc3sc4c(c3CS2)CCCC4)c(C)c1` was tested, and the Potency was active: 20 µM. `Cc1onc(-c2ccccc2Cl)c1C(=O)N(Cc1ccccc1)C(C)C` was tested, and the Potency was “inactive”. For `Cc1cccc(N/C(=N\S(=O)(=O)c2ccccc2)C(F)(F)F)c1`, the Potency was inconclusive: 44.7 µM [inhibitor, single point]. In the case of `Clc1ccc(CSc2nnc(CN3CCOCC3)n2-c2ccccc2)cc1Cl`, the Potency is reported as inconclusive: 112 µM [inhibitor, single point]. In the case of `Cc1nn(C)c(N)c1[N+](=O)[O-]`, the Potency is reported as “inactive”. `CCCc1nc2ccc(NC(C)=O)cc2c(=O)n1Cc1ccccc1Cl` was tested, and the Potency was inconclusive: 100 µM [inhibitor, single point]. For `O=C(CSc1nnc(Nc2cccc(F)c2)s1)Nc1ccnn1C1CCCC1`, the Potency was “inactive”. For `O=C(C1COc2ccccc2O1)N1CCN(c2cc(-c3ccc(Cl)cc3)[nH]n2)CC1` (stereo unspecified), the Potency was inconclusive: 31.6 µM [inhibitor, partial curve, poor fit]. With `CCCNC(=O)COc1ccc2ccc(=O)oc2c1` the Potency was inconclusive: 50.1 µM [inhibitor, partial curve, poor fit]. For `Cc1nc(NCCc2ccc(S(N)(=O)=O)cc2)c2c3c(sc2n1)CCC3`, the Potency was “inactive”. In the case of `CCC(Sc1nc(-c2ccccc2)[nH]c1S(=O)(=O)c1ccc(C)cc1)C(=O)O` (stereo unspecified), the Potency is reported as “inactive”. `CN(C)c1cccc(C(=O)Nc2ccc(C#N)cc2)c1` was tested, and the Potency was “inactive”. With `CC(O)Cc1cn(CC(=O)N2CCNCC2)nn1` (stereo unspecified) the Potency was inconclusive: 44.7 µM [inhibitor, partial curve, poor fit]. In the case of `Cc1cccc2sc(NNC(=O)c3cc(-c4cccs4)nc4ccccc34)nc12`, the Potency is reported as inconclusive: 35.5 µM [inhibitor, partial curve, poor fit]. For `CCN(CC)CCOc1ccc(C(=C(Cl)c2ccccc2)c2ccccc2)cc1`, the Potency was inconclusive: 5.62 µM [inhibitor, full curve, poor fit]. For `Cc1ccccc1/C=C(/C#N)C(=O)c1sccc1C`, the Potency was inconclusive: 39.8 µM [inhibitor, partial curve, poor fit]. `C#CCOCCOCCOCCNc1nc(N2CCOCC2)nc(N2CCN(C(=O)Cn3cc(CC(C)O)nn3)CC2)n1` (stereo unspecified) was tested, and the Potency was inconclusive: 39.8 µM [inhibitor, partial curve, poor fit]. For `CCOC(=O)C1=C(C)N(C[C@@H]2CC[C@@H](Cc3ccc(-c4ccccc4)cc3)O2)C(=O)NC1c1ccc(C(F)(F)F)cc1` (stereo partly specified), the Potency was “inactive”. For `N#C/C(=C\c1ccc(O)c(O)c1)C(=O)N1CCc2ccccc21`, the Potency was inconclusive: 22.4 µM [inhibitor, full curve, poor fit]. `O=S(=O)(NCCc1ccc(-n2cccn2)cc1)c1ccc(F)cc1` was tested, and the Potency was “inactive”. With `CC(C)CCC(CC(C)O)C(=O)NN` (stereo unspecified) the Potency was inconclusive: 1.12 µM [inhibitor, partial curve, poor fit]. In the case of `O=C(c1c[nH]c2ccc(S(=O)(=O)N3CCOCC3)cc2c1=O)N1CCCC1`, the Potency is reported as “inactive”. With `CSCC[C@H](NC(=O)[C@@H]1Cc2ccccc2CN1)C(=O)NC(C)c1ccccc1` (stereo partly specified) the Potency was “inactive”. For `CC(=O)Nc1cc(-c2ccccc2F)cn2c(-c3cccc(C(F)(F)F)c3)cnc12`, the Potency was inconclusive: 44.7 µM [inhibitor, partial curve, poor fit]. With `CCc1noc(C)c1C(=O)Nc1ccccc1N1CCOCC1` the activity change, negative = inhibition was inconclusive: -34.7% [inhibitor]. With `Cc1cccc(NC(=S)NCCc2ccc(Cl)cc2)c1C` the Potency was inconclusive: 44.7 µM [inhibitor, partial curve, poor fit]. For `COc1ccc(N2CCN(C(=O)C3CCN(S(=O)(=O)c4cccc5nonc45)CC3)CC2)cc1`, the Potency was “inactive”. `CC1CCCN(C(=O)c2cc(-c3cnn(CCO)c3)nc3cc(Cl)ccc23)C1` (stereo unspecified) was tested, and the Potency was “inactive”. With `CC(C)c1cc(Cn2c3ccccc3c(=O)n2C(C)Cn2cc(C3=CCCCC3)nn2)on1` (stereo unspecified) the Potency was inconclusive: 39.8 µM [inhibitor, partial curve, poor fit]. For `O=C(c1ccccc1[N+](=O)[O-])N(CCc1ccccc1)Cc1ccccc1`, the Potency was “inactive”. For `CC1(c2ccccc2)N(Cc2ccccc2C#N)C(=O)OC12CCN(Cc1c[nH]c3ccccc13)CC2` (stereo unspecified), the Potency was active: 31.6 µM.
